Measured data: PubChem BioAssay AID493246 (Drosophila RNAi Screening Center, 2011)

- Aim: 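Identify essential fly genes by loss of cell viability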 (primary screen)
- Cell system: Drosophila Kc and S2R+ cells
- Reagent: long dsRNA against Drosophila genes
- Measured: 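Cell number per well after knock-down, printed as raw plate values; calls were based on per-plate z-scores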
- Direction: Kc cell number and S2R+ cell number: higher = more cells remaining
- Call rule: 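Counted as a hit if cell number falls by a z-score of at least 3 within its plate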
In all, the deposit lists about 21,000 reagents; shown is a random part of those that have a named target and a result. In the full data, 429 (2%) were called active. 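Values are raw and not normalised between plates; calls rest on per-plate z-scores that were not deposited.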 Reagent sequences are not shown. Not stated in the record: the amount of reagent, the time to read-out.

no.	gene	amplicon	Kc cell number, rep 1	Kc cell number, rep 2	S2R+ cell number, rep 1	S2R+ cell number, rep 2	call
1	Dhit	DRSC07411	1.34e6	1.38e6	1.14e6	1.20e6	inactive
2	GCS2alpha	DRSC21036	1.58e6	1.56e6	1.03e6	1.18e6	inactive
3	CheA7a	DRSC17965	1.55e6	1.59e6	1.11e6	1.27e6	inactive
4	Den1	DRSC07195	1.46e6	1.40e6	1.16e6	1.32e6	inactive
5	CG18547	DRSC15345	1.89e6	1.94e6	1.35e6	1.43e6	inactive
6	Nadk1b	DRSC05432	1.48e6	1.40e6	9.98e5	1.15e6	inactive
7	Nadk1b	DRSC06964	1.42e6	1.51e6	1.20e6	1.18e6	inactive
8	Nadk1b	DRSC06965	1.58e6	1.55e6	1.25e6	1.35e6	inactive
9	CG14609	DRSC12553	1.41e6	1.49e6	1.33e6	1.41e6	inactive
10	Pdh	DRSC11249	1.62e6	1.60e6	1.28e6	1.41e6	inactive
11	Gr22f	DRSC00076	1.56e6	1.56e6	1.08e6	1.24e6	inactive
12	Hs3st-B	DRSC20067	1.55e6	1.58e6	1.11e6	1.21e6	inactive
13	CG1208	DRSC12190	1.56e6	1.70e6	1.27e6	1.32e6	inactive
14	CG5805	DRSC15878	1.59e6	1.67e6	1.00e6	1.13e6	inactive
15	CG17493	DRSC03798	1.55e6	1.58e6	1.02e6	3.93e5	inactive
16	CG5790	DRSC02896	1.39e6	1.43e6	1.36e6	1.29e6	inactive
17	nemy	DRSC05357	1.51e6	1.53e6	1.02e6	1.25e6	inactive
18	nemy	DRSC07262	1.62e6	1.72e6	9.91e5	1.14e6	inactive
19	CG7907	DRSC16339	1.41e6	1.51e6	1.01e6	1.08e6	inactive
20	Graf	DRSC20131	5.60e5		9.14e5		inactive
21	Osi8	DRSC12277	1.61e6	1.74e6	1.40e6	1.56e6	inactive
22	CG8326	DRSC20103	1.62e6	1.65e6	1.02e6	1.19e6	inactive
23	CG15784	DRSC18090	1.44e6	1.52e6	1.05e6	1.21e6	inactive
24	fzr2	DRSC04280	1.36e6	1.48e6	1.09e6	1.09e6	inactive
